According to publication PMC8888479:
Results are given in words; binding and its absence hold for the method and conditions named. Binding seen in cells or lysates may run through a third protein. Binding calls can cover weak binding; strength is not graded here.

Molecular target: T1, p190RhoGAP, endogenous in neonatal rat cardiomyocytes (rat (endogenous in NRCM)) (UniProt P81128)
T1 sequence: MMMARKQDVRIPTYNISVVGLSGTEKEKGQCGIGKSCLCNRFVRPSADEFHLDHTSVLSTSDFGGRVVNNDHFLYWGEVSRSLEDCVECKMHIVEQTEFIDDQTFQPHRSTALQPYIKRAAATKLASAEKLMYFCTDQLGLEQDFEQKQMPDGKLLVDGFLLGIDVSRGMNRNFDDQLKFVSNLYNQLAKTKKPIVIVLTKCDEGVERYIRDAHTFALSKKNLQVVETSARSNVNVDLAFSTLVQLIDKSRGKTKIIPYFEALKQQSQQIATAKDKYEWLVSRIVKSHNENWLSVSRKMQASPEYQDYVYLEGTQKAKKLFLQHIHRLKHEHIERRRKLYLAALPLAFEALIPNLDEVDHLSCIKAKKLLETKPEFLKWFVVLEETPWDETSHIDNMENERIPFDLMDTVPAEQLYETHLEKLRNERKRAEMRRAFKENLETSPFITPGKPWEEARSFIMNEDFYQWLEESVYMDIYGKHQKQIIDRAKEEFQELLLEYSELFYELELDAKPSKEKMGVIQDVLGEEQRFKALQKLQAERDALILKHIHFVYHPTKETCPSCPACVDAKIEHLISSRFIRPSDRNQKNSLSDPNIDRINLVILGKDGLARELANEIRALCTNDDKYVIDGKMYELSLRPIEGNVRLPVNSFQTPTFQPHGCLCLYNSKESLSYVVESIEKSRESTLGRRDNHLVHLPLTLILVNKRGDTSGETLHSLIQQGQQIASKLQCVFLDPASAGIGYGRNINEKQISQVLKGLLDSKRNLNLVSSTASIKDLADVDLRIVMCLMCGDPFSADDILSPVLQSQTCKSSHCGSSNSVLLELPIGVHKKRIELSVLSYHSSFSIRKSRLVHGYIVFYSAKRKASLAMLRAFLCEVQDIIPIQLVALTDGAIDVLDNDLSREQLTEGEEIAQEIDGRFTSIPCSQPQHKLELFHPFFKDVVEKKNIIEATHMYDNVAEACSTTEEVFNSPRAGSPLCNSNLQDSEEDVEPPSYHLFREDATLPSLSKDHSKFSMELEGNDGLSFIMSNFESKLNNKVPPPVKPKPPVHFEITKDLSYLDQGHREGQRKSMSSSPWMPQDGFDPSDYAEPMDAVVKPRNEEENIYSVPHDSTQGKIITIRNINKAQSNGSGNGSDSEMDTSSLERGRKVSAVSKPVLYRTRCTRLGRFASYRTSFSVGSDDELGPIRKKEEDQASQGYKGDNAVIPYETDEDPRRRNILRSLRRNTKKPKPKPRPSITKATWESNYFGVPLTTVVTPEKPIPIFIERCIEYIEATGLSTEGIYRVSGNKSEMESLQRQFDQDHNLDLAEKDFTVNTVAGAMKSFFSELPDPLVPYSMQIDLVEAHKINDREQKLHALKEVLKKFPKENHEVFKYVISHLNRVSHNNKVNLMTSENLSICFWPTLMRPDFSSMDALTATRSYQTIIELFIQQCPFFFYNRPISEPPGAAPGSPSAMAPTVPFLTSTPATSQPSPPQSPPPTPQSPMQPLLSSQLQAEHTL
Assay: proximity ligation; non-transduced NRCM on coverslips, without or with carbachol for 5 min, fixed and permeabilised; mouse anti-p190RhoGAP and rabbit anti-RGS3 primary antibodies; confocal microscopy; carbachol increased the signal

binding: binds
Substance: RGS3L, endogenous in neonatal rat cardiomyocytes
